# Results reported in article PMC7995658.
# Chains of the proteins cited; added tags and fusions are not shown.
# UniProt Q8R4B8: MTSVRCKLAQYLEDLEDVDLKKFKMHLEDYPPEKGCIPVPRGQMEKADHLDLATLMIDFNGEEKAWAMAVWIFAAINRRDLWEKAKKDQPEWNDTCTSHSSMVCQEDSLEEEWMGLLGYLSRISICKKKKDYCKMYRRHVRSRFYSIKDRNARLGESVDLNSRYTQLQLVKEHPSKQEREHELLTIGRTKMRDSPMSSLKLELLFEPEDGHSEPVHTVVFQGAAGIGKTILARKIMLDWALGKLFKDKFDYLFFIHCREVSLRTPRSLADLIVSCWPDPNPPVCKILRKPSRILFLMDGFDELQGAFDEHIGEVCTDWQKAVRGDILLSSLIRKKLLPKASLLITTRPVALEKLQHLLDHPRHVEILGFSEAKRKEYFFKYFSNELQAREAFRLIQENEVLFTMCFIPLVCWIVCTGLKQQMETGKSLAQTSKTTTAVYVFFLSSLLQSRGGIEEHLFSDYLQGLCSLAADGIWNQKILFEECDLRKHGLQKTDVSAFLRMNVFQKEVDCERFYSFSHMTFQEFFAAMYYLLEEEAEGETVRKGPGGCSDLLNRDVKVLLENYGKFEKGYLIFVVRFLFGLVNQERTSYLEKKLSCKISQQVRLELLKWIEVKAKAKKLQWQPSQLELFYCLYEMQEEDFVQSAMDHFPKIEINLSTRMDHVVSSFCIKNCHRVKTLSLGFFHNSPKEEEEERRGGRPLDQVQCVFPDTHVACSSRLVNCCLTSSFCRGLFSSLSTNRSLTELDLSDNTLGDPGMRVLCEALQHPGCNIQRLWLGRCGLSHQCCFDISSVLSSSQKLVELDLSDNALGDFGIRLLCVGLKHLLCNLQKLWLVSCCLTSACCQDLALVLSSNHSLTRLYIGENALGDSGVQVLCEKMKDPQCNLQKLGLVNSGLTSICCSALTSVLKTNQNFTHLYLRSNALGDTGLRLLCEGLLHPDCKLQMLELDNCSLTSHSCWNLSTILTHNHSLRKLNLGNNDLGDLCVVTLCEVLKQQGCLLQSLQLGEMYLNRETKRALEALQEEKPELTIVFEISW
# No constants are given. Whether binding was seen depends on the method and setting. Binding seen in cells or lysates may run through a third protein. Some binding calls cover weakened binding; strength is not graded here.
# Biological target: T1, caspase-1 (mouse (endogenous in J774.1)) (UniProt P29452)
# T1 sequence: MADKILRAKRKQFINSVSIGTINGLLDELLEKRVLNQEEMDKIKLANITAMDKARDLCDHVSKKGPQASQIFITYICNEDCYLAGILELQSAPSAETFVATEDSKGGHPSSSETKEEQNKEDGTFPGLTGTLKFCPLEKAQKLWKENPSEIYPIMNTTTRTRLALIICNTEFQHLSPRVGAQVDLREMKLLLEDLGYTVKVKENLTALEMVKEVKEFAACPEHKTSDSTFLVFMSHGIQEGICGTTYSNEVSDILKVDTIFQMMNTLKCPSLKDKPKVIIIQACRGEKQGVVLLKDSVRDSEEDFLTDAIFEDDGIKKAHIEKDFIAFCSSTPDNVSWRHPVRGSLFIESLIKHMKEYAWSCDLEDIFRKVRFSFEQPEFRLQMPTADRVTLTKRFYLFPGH
# Assay: co-IP; J774.1 cells primed with LPS (100 ng/mL, 5 h), then ATP (5 mM) with or without GSH (5 mM) or GSSG (5 mM) for 1.5 h; lysates in pull-down buffer (50 mM Hepes-NaOH pH 7.5, 15 mM NaCl, 1 mM EGTA, 150 mM MgCl2, 10% glycerol, 1% Triton X-100) precipitated overnight with anti-NLRP3 or anti-caspase-1 (p20) antibody and protein G agarose at 4 °C; Western blotting
substance,measurement,value
nod-like receptor protein 3 (from UniProt Q8R4B8 1-1033),binding,binds
